One molecule from patent US20230175069A1, “COMPOSITIONS AND METHODS FOR DETECTING GENE FUSIONS OF ESR1 AND CCDC170 FOR DETERMINING INCREASED RESISTANCE TO ENDOCRINE THERAPY AND FOR CANCER TREATMENT” (UNIVERSITY OF PITTSBURGH-OF THE COMMONWEAL TH SYSTEM OF …, priority 2020, published 2023) can be followed below.

This assay concerns HER2. Particulars: HCC1428 cells.

Regarding `C[C@]12CC[C@@H]3c4ccc(O)cc4C[C@@H](CCCCCCCCC[S+]([O-])CCCC(F)(F)C(F)(F)F)[C@H]3[C@@H]1CCC2O` (stereo partly shown) [fulvestrant], the “HER2 protein level (Western blot)” value is “upregulated”.
